According to PubChem BioAssay AID504467 (National Center for Advancing Translational Sciences (NCATS), 2011):
Hit rate of the full screen: of about 330,000 compounds, about 7,700 (2.3%) were called active. The shares of active, inactive and inconclusive entries below differ from those in the screen. Calls come from the whole dose curve; as a rule, active = well fitted inhibition curve with a large enough effect; inconclusive = small, poorly fitted or top-dose-only effect, or effect the other way; inactive = flat fitted curve, though single readings scatter. Where the call is inconclusive, the potency comes from a doubtful curve fit.

assay: qHTS screen for small molecules that inhibit ELG1-dependent DNA repair in human embryonic kidney (HEK293T) cells expressing luciferase-tagged ELG1; settings: HEK293T ELG1-luciferase reporter, luminescence, 16 h, DNA damage induced by 5-fluorouridine; activity change, negative = inhibition: at 46.1 µM (top of the series); note: nearly all actives have a fitted effect of over 55% in size
In short: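 HEK293T cells expressing luciferase-tagged ELG1 (2,000/well) received 5-Fluorouridine plus compound or DMSO for 16 hr at 37 °C. Luciferase was read by ONE-Glo luminescence after 30 min at room temperature.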
% is set by controls: 0 for no effect and ±100 for the full control effect; potency is the fitted concentration of half-maximal effect.

Compound	activity change, negative = inhibition	Potency
COc1ccc(C(=O)Cn2c(NCCO)nc3ccccc32)cc1OC	inactive: -4.51%	–
O=[N+]([O-])c1ccc(N2CCN(c3ccc(O)cc3)CC2)cn1	–	inconclusive: 2.91 µM [inhibitor, full curve]
Cc1ccc(CNc2ccc([N+](=O)[O-])cc2C(N)=O)cc1	–	inconclusive: 5.62 µM [activator, single point]
O=S(=O)(NCCSCc1ccc(Cl)cc1Cl)c1ccc2c(c1)OCCO2	–	inconclusive: 5.8 µM [inhibitor, single point]
CCN(CC(=O)Nc1ccccc1C(F)(F)F)C(=O)CCc1c(C)[nH]c(=O)c(C#N)c1C	–	inconclusive: 32.6 µM [activator, partial curve, poor fit]
CCCSc1nsc(SCCC)c1C(N)=O	inactive: 1.04%	–
O=C(c1ccc(Cl)c([N+](=O)[O-])c1)N1CCN(C(=O)c2ccco2)CC1	inactive: -13.2%	–
COc1ccccc1OCCCCOc1ccccc1F	–	inconclusive: 23.1 µM [activator, single point]
CCOC(=O)N1CCC(N2Cc3cccc(C(=O)NCc4ccccc4OC)c3C2=O)CC1	–	inconclusive: 25.9 µM [inhibitor, partial curve, poor fit]
O=C(Nc1ccccc1-c1nc2ccccc2s1)c1cccnc1Cl	–	inconclusive: 23.1 µM [inhibitor, single point]
O=C(N/N=C/c1ccc2c(c1)OCO2)C1COc2ccccc2O1 (centres undefined)	inactive: -14.6%	–
O=C(c1ccc(S(=O)(=O)Cc2ccccc2Cl)c([N+](=O)[O-])c1)N1CCN(c2ccccn2)CC1	–	inconclusive: 29.1 µM [inhibitor, single point]
CC(=O)Nc1cccc(NC(=O)Cc2nc(-c3ccccc3)sc2-c2ccc(C)cc2)c1	inactive: -2.41%	–
CC(C)(CC(=O)O)CC(=O)Nc1ccc(Cl)c(Cl)c1	–	inconclusive: 29.1 µM [activator, partial curve, poor fit]
COc1ccc(N2CCN(C(=O)C3Cc4ccccc4CN3C(=O)c3ccccc3)CC2)cc1 (centres undefined)	–	inconclusive: 29.1 µM [activator, single point]
Cc1nnc(NC(=O)Nc2ccc(Cl)c(Cl)c2)s1	–	inconclusive: 5.8 µM [inhibitor, single point]
Cc1cc(NCCCn2ccnc2)n2ncc(-c3ccc(Cl)cc3)c2n1	–	inconclusive: 1.41 µM [activator, partial curve, poor fit]
Cc1ccc2c(c1)S/C(=C/c1ccc[n+](C)c1)N2CCO	–	inconclusive: 5.17 µM [inhibitor, partial curve]
O=c1[nH]c2cc3c(cc2cc1CN(Cc1ccccc1)Cc1nnnn1Cc1ccco1)OCCO3	–	inconclusive: 29.1 µM [inhibitor, single point]

Reprinted at random: two compounds from above, in no set order.
Compound	activity change, negative = inhibition	Potency
CCCSc1nsc(SCCC)c1C(N)=O	inactive: 1.04%	–
O=C(N/N=C/c1ccc2c(c1)OCO2)C1COc2ccccc2O1 (centres undefined)	inactive: -14.6%	–
